Experimental data from PMC10760242.
These are yes or no findings as the source states them, for the method shown. In cells and extracts the contact can be indirect. Here binding means that the protein was enriched with, or labelled near, the bait; the list need not be complete.

Chains of the proteins cited; added tags and fusions are not shown. Lines headed by an entry give the natural chain unless they say otherwise; changes in a name come on top.
UniProt P02538: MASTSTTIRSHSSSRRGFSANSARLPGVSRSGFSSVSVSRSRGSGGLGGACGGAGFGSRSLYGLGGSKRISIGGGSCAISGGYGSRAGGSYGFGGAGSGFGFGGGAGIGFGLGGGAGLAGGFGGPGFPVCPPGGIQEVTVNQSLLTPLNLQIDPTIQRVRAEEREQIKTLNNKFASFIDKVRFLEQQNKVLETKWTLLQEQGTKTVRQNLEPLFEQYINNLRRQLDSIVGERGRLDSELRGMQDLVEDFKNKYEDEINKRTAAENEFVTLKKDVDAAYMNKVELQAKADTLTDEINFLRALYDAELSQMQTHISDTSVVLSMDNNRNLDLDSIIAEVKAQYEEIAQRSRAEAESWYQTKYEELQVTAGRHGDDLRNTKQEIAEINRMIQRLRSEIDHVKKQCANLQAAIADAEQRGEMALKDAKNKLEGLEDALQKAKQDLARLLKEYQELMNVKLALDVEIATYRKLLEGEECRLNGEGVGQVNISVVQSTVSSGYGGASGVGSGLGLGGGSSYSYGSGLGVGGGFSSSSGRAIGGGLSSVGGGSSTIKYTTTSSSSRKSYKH
UniProt P13647: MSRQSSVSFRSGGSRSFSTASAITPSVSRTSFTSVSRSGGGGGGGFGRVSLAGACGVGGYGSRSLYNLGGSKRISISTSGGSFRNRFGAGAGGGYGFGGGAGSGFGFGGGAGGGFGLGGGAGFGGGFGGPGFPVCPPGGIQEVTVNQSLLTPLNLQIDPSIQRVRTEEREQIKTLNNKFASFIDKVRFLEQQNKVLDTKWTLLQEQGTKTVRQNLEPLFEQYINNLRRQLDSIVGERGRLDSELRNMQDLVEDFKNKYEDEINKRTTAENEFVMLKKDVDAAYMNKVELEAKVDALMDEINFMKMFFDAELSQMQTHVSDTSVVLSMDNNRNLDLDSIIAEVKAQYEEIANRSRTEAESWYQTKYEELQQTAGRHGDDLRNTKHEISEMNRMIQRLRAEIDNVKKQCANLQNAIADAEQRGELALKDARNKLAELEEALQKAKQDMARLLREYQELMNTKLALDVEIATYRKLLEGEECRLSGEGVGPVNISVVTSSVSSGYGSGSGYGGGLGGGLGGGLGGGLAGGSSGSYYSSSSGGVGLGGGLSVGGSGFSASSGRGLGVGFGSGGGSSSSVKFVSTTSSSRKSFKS

T1: Tripartite Motif-containing protein 29 (TRIM29) (human (endogenous in UM-UC5, UM-UC9, UM-UC14)) (UniProt Q14134)
T1 sequence: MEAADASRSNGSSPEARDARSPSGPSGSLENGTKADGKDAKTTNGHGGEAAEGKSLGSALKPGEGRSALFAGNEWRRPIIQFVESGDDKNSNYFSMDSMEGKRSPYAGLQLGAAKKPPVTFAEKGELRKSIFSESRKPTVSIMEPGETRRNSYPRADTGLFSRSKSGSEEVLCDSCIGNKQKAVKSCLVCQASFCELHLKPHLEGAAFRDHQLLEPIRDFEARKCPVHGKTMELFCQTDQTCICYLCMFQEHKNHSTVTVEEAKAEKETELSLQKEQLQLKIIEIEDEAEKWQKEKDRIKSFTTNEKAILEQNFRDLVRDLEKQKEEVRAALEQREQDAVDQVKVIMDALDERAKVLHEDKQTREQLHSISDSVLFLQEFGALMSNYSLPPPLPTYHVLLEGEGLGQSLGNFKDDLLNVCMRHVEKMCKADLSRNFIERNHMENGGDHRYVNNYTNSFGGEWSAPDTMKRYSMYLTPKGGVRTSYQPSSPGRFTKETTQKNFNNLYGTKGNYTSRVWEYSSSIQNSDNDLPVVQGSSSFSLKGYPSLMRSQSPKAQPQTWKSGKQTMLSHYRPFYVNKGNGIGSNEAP


Target: T1, Tripartite Motif-containing protein 29 (TRIM29) (human (endogenous in UM-UC5, UM-UC9, UM-UC14))
Assay: affinity purification with mass spectrometry; IP of endogenous TRIM29 with TRIM29 antibody (B-2) on magnetic beads from UM-UC5 and UM-UC9 lysates, overnight at 4°C; lysis buffer 25 mM Tris-HCl pH 7.4, 150 mM NaCl, 1 mM EDTA, 5% glycerol; LC/MS of the beads; TRIM29-KO cells as negative control

binding	Molecule
binds	K6A (from UniProt P02538 1-564)
binds	K5 (from UniProt P13647 1-590)
binds	K18 (protein, UniProt P05783 1-430) MSFTTRSTFSTNYRSLGSVQAPSYGARPVSSAASVYAGAGGSGSRISVSRSTSFRGGMGSGGLATGIAGGLAGMGGIQNEKETMQSLNDRLASYLDRVRSLETENRRLESKIREHLEKKGPQVRDWSHYFKIIEDLRAQIFANTVDNARIVLQIDNARLAADDFRVKYETELAMRQSVENDIHGLRKVIDDTNITRLQLETEIEALKEELLFMKKNHEEEVKGLQAQIASSGLTVEVDAPKSQDLAKIMADIRAQYDELARKNREELDKYWSQQIEESTTVVTTQSAEVGAAETTLTELRRTVQSLEIDLDSMRNLKASLENSLREVEARYALQMEQLNGILLHLESELAQTRAEGQRQAQEYEALLNIKVKLEAEIATYRRLLEDGEDFNLGDALDSSNSMQTIQKTTTRRIVDGKVVSETNDTKVLRH
binds	K9 (protein, UniProt P35527 1-623) MSCRQFSSSYLSRSGGGGGGGLGSGGSIRSSYSRFSSSGGGGGGGRFSSSSGYGGGSSRVCGRGGGGSFGYSYGGGSGGGFSASSLGGGFGGGSRGFGGASGGGYSSSGGFGGGFGGGSGGGFGGGYGSGFGGFGGFGGGAGGGDGGILTANEKSTMQELNSRLASYLDKVQALEEANNDLENKIQDWYDKKGPAAIQKNYSPYYNTIDDLKDQIVDLTVGNNKTLLDIDNTRMTLDDFRIKFEMEQNLRQGVDADINGLRQVLDNLTMEKSDLEMQYETLQEELMALKKNHKEEMSQLTGQNSGDVNVEINVAPGKDLTKTLNDMRQEYEQLIAKNRKDIENQYETQITQIEHEVSSSGQEVQSSAKEVTQLRHGVQELEIELQSQLSKKAALEKSLEDTKNRYCGQLQMIQEQISNLEAQITDVRQEIECQNQEYSLLLSIKMRLEKEIETYHNLLEGGQEDFESSGAGKIGLGGRGGSGGSYGRGSRGGSGGSYGGGGSGGGYGGGSGSRGGSGGSYGGGSGSGGGSGGGYGGGSGGGHSGGSGGGHSGGSGGNYGGGSGSGGGSGGGYGGGSGSRGGSGGSHGGGSGFGGESGGSYGGGEEASGSGGGYGGGSGKSSHS
